Results deposited as PubChem BioAssay AID652259 (Drosophila RNAi Screening Center, 2013)

- Aim: 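Knock-downs that push a Wingless-driven reporter up or down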 (primary screen)
- Cells: Drosophila clone 8 imaginal disc epithelial cells
- Reagent: long dsRNA against Drosophila genes
- Conditions: pathway stimulated by co-transfected Wingless expression plasmid
- Read-out: 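Dual luciferase reads per well after Wingless plasmid stimulation: reporter firefly light and Renilla control light; activity is firefly divided by Renilla, a ratio not deposited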
- Scale: firefly reporter light: higher = more Wg reporter light, before normalisation; Renilla control light: higher = more transfected or surviving cells
- Hit rule: 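Strong candidates differ from their plate mean by at least two out of four per-plate statistical tests; weak candidates meet just one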
- Calls: active = candidate regulator (raises or lowers reporter); inactive = not a candidate
In all, the deposit lists about 22,000 reagents; this is a random part of those with a known target gene and a result. Over the whole deposit, 233 (1.1%) are marked active. 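Light values are raw, unnormalised plate reads; the ratio scores behind the reporter calls were not deposited.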 A number with no mark means an inactive call. A plus sign joins genes that one reagent is predicted to hit. Not stated in the record: the amount of reagent, the time to read-out, the dose of the treatment.

predicted target,DRSC id,"firefly reporter light, replicate 1","firefly reporter light, replicate 2","Renilla control light, replicate 1","Renilla control light, replicate 2"
CG13243,DRSC01920,4624,9445,1025,2465
CR17438 (pseudo),DRSC18125,19584,,8752,
CG4511,DRSC15589,15180,,4633,
CG14455,DRSC11712,9344,,3474,
CG32485,DRSC22666,5.53e5,5.60e5,2.26e5,1.84e5
LysRS (Lysyl-tRNA synthetase),DRSC17824,1853,7504,544,2055
rg (rugose),DRSC17377,5316,,2304,
rg (rugose),DRSC17726,3691,3943,1052,1232
rg (rugose),DRSC18049,25218,,12621,
mre11 (meiotic recombination 11),DRSC03570,20928,,7756,
mre11 (meiotic recombination 11),DRSC22628,6.08e5,5.72e5,1.99e5,1.73e5
CG1208,DRSC12190,5409,,2097,
CG2617,DRSC02712,3751,6754,633,1826
CG42288,DRSC06381,6091,,1764,
Gr36a (Gustatory receptor 36a),DRSC22663,4.99e5,4.83e5,2.21e5,2.10e5
CG15386 + CG42371,DRSC00400,2619,5744,1201,2625
Spn28Db (Serpin 28Db),DRSC22033,4.53e5,4.92e5,1.63e5,1.91e5
CG8314,DRSC07144,17974,,4706,
CG13131,DRSC02227,2827,8128,976,3776
Neurl4 (Neuralized E3 ubiquitin protein ligase 4),DRSC10638,3936,,1612,
Ccdc56 + mtTFB1,DRSC10809,9683,8.56e5,4310,4.51e5
Gr43a (Gustatory receptor 43a),DRSC06658,2859,6992,691,2198
Bet5 (Blocked early in transport 5),DRSC14600,9573,,3493,
CG9257,DRSC03173,2486,7578,765,2538
Doa (Darkener of apricot),DRSC13892,3917,,2054,
Doa (Darkener of apricot),DRSC13893,5673,,1936,
Doa (Darkener of apricot),DRSC13895,4140,,1981,
Doa (Darkener of apricot),DRSC13896,3715,,1946,
Doa (Darkener of apricot),DRSC13897,4080,,2054,
Doa (Darkener of apricot),DRSC16650,3843,8301,1808,1300
